# Source: the supplement of paper PMC7024190
# Counter-ions that a name gives are not always drawn. This is one part of the list. Repeats in this data set agree poorly, so a single value says little.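 The cells were human embryonic kidney cells carrying a Renilla luciferase gene, driven by the HSV-TK promoter, on a plasmid put in briefly by transfection. This is the first-round screen of about ten thousand compounds, looking for ones that raise reporter output.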
# System: HEK 293FT
# Experiment: log relative Renilla luciferase luminescence (reporter expression vs reference, reference not stated) (log (base not stated)); higher = higher recombinant reporter expression
# Conditions: 10 µM; time after transfection 48 h
row,Structure (SMILES),log
1,CCN(CCCCOC(=O)c1ccc(OC)c(OC)c1)C(C)Cc1ccc(OC)cc1 (stereo unspecified) [Mebeverine hydrochloride],0.122
2,CCN(CC)CCOCCOC(=O)C1(c2ccccc2)CCCC1 [Carbetapentane citrate],0.106
3,Cc1c(N)c(=O)n(-c2ccccc2)n1C [Ampyrone],-0.024
4,NC[C@H]1O[C@H](O[C@H]2[C@H](O)[C@@H](O[C@H]3O[C@H](CO)[C@@H](O)[C@H](N)[C@H]3O)[C@H](N)C[C@@H]2N)[C@H](N)C[C@@H]1O [Tobramycin],-0.41
5,C=CCOc1ccccc1OCC(O)CNC(C)C (stereo unspecified) [Oxprenolol hydrochloride],-0.0188
6,CCOC(=O)/C=C(C)/C=C/C=C(C)/C=C/c1c(C)cc(OC)c(C)c1C [Etretinate],-0.0878
7,CC(C)C(=O)c1c(C(C)C)nn2ccccc12 [Ibudilast],0.000654
8,OC(CCN1CCCC1)(c1ccccc1)C1CCCCC1 (stereo unspecified) [Procyclidine hydrochloride],-0.0131
9,CC(C)NCC(O)COc1cccc2[nH]ccc12 (stereo unspecified) [Pindolol],-0.0328
10,CC(CN(C)C)CN1c2ccccc2CCc2ccccc21 (stereo unspecified) [Trimipramine maleate salt],-0.139
11,C=C1C(=O)O[C@H]2[C@H]1CC/C(C)=C/CC[C@@]1(C)O[C@@H]21 [Parthenolide],-0.0681
12,CCCCOc1ccc(C(=O)CCN2CCCCC2)cc1 [Dyclonine hydrochloride],-0.0733
13,CC(C)(C)CC(C)(C)c1ccc(OCCOCC[N+](C)(C)Cc2ccccc2)cc1 [Benzethonium chloride],-1.09
14,"CN1[C@@H]2CC[C@H]1C[C@@H](OC(=O)C(O)c1ccccc1)C2 (mixture of isomers) [Homatropine hydrobromide (R,S)]",0.0878
15,Cn1nnc2c(C(N)=O)ncn2c1=O [Temozolomide],-0.0364
16,CC(C)(C)NC(=O)[C@H]1CC[C@H]2[C@@H]3CC[C@H]4NC(=O)C=C[C@]4(C)[C@H]3CC[C@]12C [Finasteride],0.0464
17,Nc1nc(N)c2nc(-c3ccccc3)c(N)nc2n1 [Triamterene],0.116
18,Cc1c(Nc2ncccc2C(=O)O)cccc1C(F)(F)F [Flunixin meglumine],-0.072
19,CC[C@H](c1ccc(O)cc1)[C@@H](CC)c1ccc(O)cc1 [Hexestrol],-0.615
20,CC1(C)O[C@@H]2C[C@H]3[C@@H]4C[C@H](F)C5=CC(=O)C=C[C@]5(C)[C@H]4[C@@H](O)C[C@]3(C)[C@]2(C(=O)CO)O1 [Flunisolide],-0.153
21,CN(Cc1cc(Br)cc(Br)c1N)C1CCCCC1 [Bromhexine hydrochloride],-0.0219
22,C[C@H](CS)C(=O)N1CCC[C@H]1C(=O)O [Captopril],0.134
23,NCCc1ccc(O)c(O)c1 [Dopamine hydrochloride],0.0303
24,CCN1CCCC1CNC(=O)c1cc(S(N)(=O)=O)ccc1OC (stereo unspecified) [Sulpiride],0.134
25,CCCCc1oc2ccccc2c1C(=O)c1cc(I)c(OCCN(CC)CC)c(I)c1 [Amiodarone hydrochloride],-0.624
26,O=C(O)c1cccnc1 [Niacin],-0.954

# An excerpt of these results, bar-delimited:
row | Structure (SMILES) | log
3 | Cc1c(N)c(=O)n(-c2ccccc2)n1C [Ampyrone] | -0.024
5 | C=CCOc1ccccc1OCC(O)CNC(C)C (stereo unspecified) [Oxprenolol hydrochloride] | -0.0188

# Remaining list, next part.

row,Structure (SMILES),log
1,Cc1cccc(N(C)C(=S)Oc2ccc3ccccc3c2)c1 [Tolnaftate],0.0878
2,O=c1[nH]c(=O)n([C@H]2C[C@H](O)[C@@H](CO)O2)cc1I [Idoxuridine],0.187
3,CC1(C)O[C@@H]2C[C@H]3[C@@H]4C[C@H](F)C5=CC(=O)CC[C@]5(C)[C@H]4[C@@H](O)C[C@]3(C)[C@]2(C(=O)CO)O1 [Flurandrenolide],-0.0288
4,NNC(=O)c1ccncc1 [Isoniazid],-0.0293
5,CCN(CC)CCN[C@@H](C(=O)OCCC(C)C)c1ccccc1 [Camylofine chlorhydrate],0.0159
6,CN1CCCN=C1/C=C/c1cccs1 [Pyrantel tartrate],0.113
7,CCC[C@@H]1C[C@@H](C(=O)N[C@@H]([C@H]2O[C@H](SC)[C@H](O)[C@@H](O)[C@H]2O)[C@@H](C)O)N(C)C1 [Lincomycin hydrochloride],-1.3
8,C#C[C@]1(O)CC[C@H]2[C@@H]3CCC4=Cc5oncc5C[C@]4(C)[C@H]3CC[C@@]21C [Danazol],0.054
9,CCOc1ccc(Cc2nccc3cc(OCC)c(OCC)cc23)cc1OCC [Ethaverine hydrochloride],-0.603
10,O=C(Nc1ccc([N+](=O)[O-])cc1Cl)c1cc(Cl)ccc1O [Niclosamide],-1.22
11,CC12CC3CC(C)(C1)CC(N)(C3)C2 [Memantine Hydrochloride],-0.147
12,CC(C)NNC(=O)c1ccncc1 [Iproniazide phosphate],0.054
13,CCN(CC)CCNC(=O)c1cc(Br)c(N)cc1OC [Bromopride],0.1
14,OC(CCN1CCCCC1)(c1ccccc1)c1ccccc1 [Pridinol methanesulfonate salt],0.122
15,C[C@H](CCC(=O)O)[C@H]1CC[C@H]2[C@@H]3C(=O)C[C@@H]4CC(=O)CC[C@]4(C)[C@H]3CC(=O)[C@]12C [Dehydrocholic acid],0.0361
16,CCOC(=O)C1=C(C)NC(C)=C(C(=O)OC)C1c1cccc(Cl)c1Cl (stereo unspecified) [Felodipine],-1.02
17,O=C1c2c(O)ccc(O)c2C(=O)c2c(NCCNCCO)ccc(NCCNCCO)c21 [Mitoxantrone dihydrochloride],-1.38
18,O=C(NC(Cc1cc(=O)[nH]c2ccccc12)C(=O)O)c1ccc(Cl)cc1 (stereo unspecified) [Rebamipide],0.0806
19,Nc1ncn(C2OC(CO)C(O)C2O)c(=O)n1 (stereo unspecified) [Azacytidine-5],0.00954
20,CC(C)(C)NC[C@H](O)COc1cccc2c1CCCC2=O [(-) -Levobunolol hydrochloride],-0.0369
21,C[N+](C)(C)CCOC(N)=O [Carbachol],-0.00216
22,O=C(O)CCC(=O)c1ccc(-c2ccccc2)cc1 [Fenbufen],0.0159
23,N[C@@H](Cc1ccc(O)c(O)c1)C(=O)O [Levodopa],-0.00821
24,CN1CCN2c3ccccc3Cc3ccccc3C2C1 (stereo unspecified) [Mianserine hydrochloride],0.0331
25,CCC(C)(C)C(=O)O[C@H]1C[C@@H](C)C=C2C=C[C@H](C)[C@H](CC[C@@H]3C[C@@H](O)CC(=O)O3)[C@H]21 [Simvastatin],-0.174
